The test system of this test is OVCAR-3-derived ovarian cancer stem-like cells (spheroids). In words: cell growth relative to untreated control; higher = more growth (less inhibition). The settings on record: 2.29 µM; 96 h. Summed up:
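Viability of stem-like cells from OVCAR-3 spheroids was assessed with TOX8 resazurin fluorescence at ex 560/em 590 nm. The cells had been trypsin-dissociated, seeded at 50,000 cells/mL in stem cell medium in ultra-low attachment 96-well plates and preincubated 24 h, then treated with compounds at 2.29 uM for 96 h at 37°C, 5% CO2, in 4 replicate wells, with fluorescence read after 4 h. Results were converted to percent growth against untreated wells after blank subtraction and Grubbs outlier removal.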

± gives the standard deviation. The list shows a part of the results, in another mix than the full data.

In turn, `COc1c(O)cc2c(c1OC)-c1ccc(OC)c(=O)cc1[C@@H](NC(C)=O)CC2` registered a cell growth of 21.7 ± 5.6%.

For the origin of these results see the supplement of paper PMC3484114.
